Measured values: PubChem BioAssay AID540276 (National Center for Advancing Translational Sciences (NCATS), 2011)
Among all 300,000 compounds or so, about 5,400 (1.8%) were called active. Inconclusive means that the source gave no clear call. Such entries were picked first, then a sample of the others. The call rests on the fitted dose curve; tested in HEK293 cells. Potencies of inconclusive entries are doubtful fits and often do not repeat.

assay: qHTS for inhibitors of binding or entry into cells for Marburg Virus; details: Marburg virus pseudotyped entry inhibition, cell reporter; activity change, negative = inhibition: at 37.8 µM (top of the series) unless noted
On the % scale 0 is the no-effect control and ±100 the full control effect; potency means the concentration at half of the fitted maximal effect.

SMILES | activity change, negative = inhibition | Potency
Cc1ccc(NC(=O)Cn2nc(-c3ccccc3Cl)ccc2=O)c(Br)c1 | inactive: 0.462% | 
CCOc1ccc(CCNC(=O)c2ccc(CNS(=O)(=O)c3ccccc3)cc2)cc1OCC |  | inconclusive: 15.8 µM [inhibitor, partial curve, poor fit]
COC(=O)C1CCN(c2nc3ccccc3nc2[C@@H](C#N)C(=O)NCCc2ccccc2)CC1 | inactive: -0.297% | 
COc1ccc(NC(=O)O/N=C/c2ccc(N(C)C)cc2)cc1 |  | inconclusive: 3.16 µM [activator, partial curve, poor fit]
CCc1ccccc1NC(=O)C1CCN(S(=O)(=O)c2ccc3c(c2)N(C(C)=O)CCO3)CC1 |  | inconclusive: 0.631 µM [activator, partial curve, poor fit]
Cc1c(C)c2ccc(OC(C)C(=O)NC3CCN(Cc4ccccc4)CC3)cc2oc1=O (stereo not drawn) |  | inconclusive: 35.5 µM [inhibitor, partial curve, poor fit]
Cc1csc(NC(=O)CSc2nnc(-c3cc(C)on3)o2)n1 | inactive: -0.161% | 
Cc1cccc(OCCC(=O)Nc2ccc(F)c(F)c2)c1 |  | inconclusive: 0.282 µM [activator, partial curve, poor fit]
CCOc1ccc(NC(=O)CSc2oc(-c3ccccc3)nc2S(=O)(=O)c2ccc(Cl)cc2)cc1 | inactive: -3.72% [at 46.1 µM] | 
COC(=O)c1cc(NC(=O)c2cc3sccc3n2Cc2ccc(Cl)cc2)cc(C(=O)OC)c1 |  | inconclusive: 7.94 µM [inhibitor, partial curve, poor fit]
O=C(Nc1csc([N+](=O)[O-])c1)Nc1ccccc1Cl |  | inconclusive: 22.4 µM [inhibitor, single point]
CCOCc1cc(CN2CCN(c3ccccc3OC)CC2)c(O)c2ncccc12 |  | inconclusive: 2.51 µM [inhibitor, full curve, poor fit]
O=C(c1nc2n(n1)C(c1ccc(Cl)cc1)C=C(c1ccccc1)N2)N1CCOCC1 (stereo not drawn) |  | inactive
CCCC(C(=O)NC1CCCC1)N(Cc1cccs1)C(=O)c1snc(C(N)=O)c1N (stereo not drawn) |  | inconclusive: 0.73 µM [inhibitor, full curve, poor fit]
Cc1ccc(-c2noc(CCCC(=O)Nc3cccnc3)n2)cc1 |  | inconclusive: 5.62 µM [inhibitor, full curve]
CC(=O)N1N=C(c2ccc(C)cc2)OC1c1ccc(C)cc1 (stereo not drawn) | inactive: 17.2% | 
N#Cc1ccccc1COC(=O)c1cccnc1N | inactive: -1.94% | 
COc1cccc(/C=N/NC(N)=S)c1OCc1cccc(Cl)c1 |  | inconclusive: 6.31 µM [inhibitor, single point]
COc1ccc(C2CC(c3ccccc3)=NN2C(=O)COC(=O)C2(C)CC2(Cl)Cl)cc1 (stereo not drawn) |  | inconclusive: 35.5 µM [inhibitor, single point]
CO/N=C(\Cn1ncc(NC2CCCCC2)c(Br)c1=O)c1ccc(Cl)cc1 |  | inconclusive: 3.16 µM [inhibitor, single point]
CC(=O)N1CCN(S(=O)(=O)c2cccc(C(=O)OCC(=O)N3CC(=O)Nc4ccccc43)c2)CC1 | inactive: -4.75% [at 14.2 µM] | 
Cc1ccc(Nc2nnc(-c3ccncc3)s2)c(Br)c1 | inactive: 24.8% | 
O=C(/C=C/c1ccccc1)N1CCN(c2c(Cl)cccc2[N+](=O)[O-])CC1 | inactive: -6.49% | 

SMILES | activity change, negative = inhibition | Potency
CCCN1C(=O)c2cc(C(=O)Nc3ccccc3C)ccc2C1Nc1ccccc1C (stereo not drawn) |  | inconclusive: 20 µM [inhibitor, partial curve, poor fit]
O=C(CO/N=C/c1ccc(OC(F)F)cc1)N1CCc2ccccc21 |  | inconclusive: 3.16 µM [activator, single point]
COc1ccc(C(=O)/C=C/c2cn(CC(O)CN3CCc4ccccc43)c3ccccc23)cc1 (stereo not drawn) |  | inconclusive: 11.2 µM [inhibitor, partial curve, poor fit]
Cc1ccc([N+](=O)[O-])c(OCC(=O)OCC(=O)c2ccccc2)c1 |  | inconclusive: 0.562 µM [inhibitor, single point]
CCCNC(=O)Nc1ccc(C(F)(F)F)cc1 | inactive: 14.4% | 
C#CCCCO/N=C1/C[C@@H](O)[C@@H](O)[C@@H]2[C@@H]3C(=O)N(c4cccc(Oc5ccccc5)c4)C(=O)[C@H]3CC[C@@H]12 |  | inconclusive: 0.376 µM [inhibitor, partial curve]
OCC1(Cc2ccccc2)CCCN(Cc2c[nH]c3ccccc23)C1 (stereo not drawn) |  | inconclusive: 10 µM [inhibitor, partial curve, poor fit]
C=CCn1c(N)cc(=O)nc1SCC(=O)Nc1ccc(C)cc1 |  | inconclusive: 1.26 µM [inhibitor, single point]
CCN(CC)c1ccc(C2N(C(=O)N3CCOCC3)CCN2S(=O)(=O)c2ccc(C)cc2)cc1 (stereo not drawn) | inactive: -9.96% | 
Cc1cc(OCc2cc(C(=O)NCCN3CCCCC3CO)no2)cc(C)c1Cl (stereo not drawn) |  | inconclusive: 14.1 µM [inhibitor, partial curve, poor fit]
CSc1cc(/C=N/O)c(SC)s1 |  | inconclusive: 1.26 µM [inhibitor, single point]
COc1cccc(Cn2c(=O)n(-c3cccc(Cl)c3)c(=O)c3c4c(sc32)CN(C(C)=O)CC4)c1 |  | inconclusive: 5.01 µM [inhibitor, full curve, poor fit]
CN1CCN(c2ccc([N+](=O)[O-])c(N/N=C3\CN4CCC3CC4)c2)CC1 |  | inconclusive: 23.1 µM [inhibitor, partial curve, poor fit]
C=CCC(CC=C)(CNC(=O)C(=O)Nc1ccc(C)cc1)c1ccccc1 | inactive: 13.4% [at 46.1 µM] | 
COC(=O)C(Cc1ccccc1)NC(=O)COc1ccc(C(C)(C)C)cc1 (stereo not drawn) |  | inconclusive: 14.1 µM [inhibitor, single point]
CSC1=NC(C)(C)C=C(/C=C/c2ccc(Cl)cc2)N1 |  | inconclusive: 11.2 µM [inhibitor, partial curve, poor fit]
COc1ccc(Cl)cc1NC(=O)CC(=O)Nc1cc(Cl)ccc1OC |  | inconclusive: 4.47 µM [inhibitor, full curve, poor fit]
O=C(Cc1noc2ccccc12)Nc1ccccn1 |  | inconclusive: 0.1 µM [inhibitor, partial curve, poor fit]
O=c1[nH][nH]c(=O)c2cc([N+](=O)[O-])ccc12 | inactive: 5.66% [at 46.1 µM] | 
COC(=O)c1cccc2c1NC(=O)C2=O |  | inconclusive: 15.8 µM [inhibitor, single point]
C/C(=N\NC(=O)c1nn(C)c(C)c1Br)c1ccc(NC(=O)c2ccoc2C)cc1 | inactive: -9.91% | 
CCc1ccc(NC(=O)Cn2c(=O)n(CCCCC(=O)NCc3ccccc3Cl)c(=O)c3ccccc32)cc1 | inactive: -25.5% [at 46.1 µM] | 
O=C(Nc1cccc(S(=O)(=O)N2CCCCC2)c1)c1ccc2c(c1)OCO2 |  | inconclusive: 3.55 µM [inhibitor, full curve, poor fit]

SMILES | activity change, negative = inhibition | Potency
O=C(COc1ccc(S(=O)(=O)N2CCCC2)cc1[N+](=O)[O-])N1CCCC1 |  | inconclusive: 3.98 µM [activator, full curve, poor fit]
Cc1ccc(-n2c(C)cc(/C=N/NC(=O)Cn3c4ccccc4c(=O)c4ccccc43)c2C)cc1 |  | inconclusive: 10.3 µM [inhibitor, partial curve, poor fit]
Cc1cccc(OCC(=O)NNC(=O)CCc2ccccc2)c1 | inactive: 25.1% [at 46.1 µM] | 
CC1c2[nH]c3ccccc3c2C[C@H]2C(=O)N(CCCN(C)C)CC(=O)N12 (stereo partly drawn) |  | inconclusive: 6.31 µM [activator, single point]
Cc1cccc(NC(=O)CN2C(=O)N/C(=C/c3ccc(-c4cccc(C(=O)O)c4C)o3)C2=O)c1 | inactive: -0.58% [at 46.1 µM] | 
COc1cn(-c2ccccc2)nc1C(=O)Nc1ccc(C)cc1Cl |  | inconclusive: 35.5 µM [inhibitor, partial curve, poor fit]
CC1(C)Cc2ccccc2C(c2cc3ccccc3oc2=O)=N1 | inactive: 0.831% | 
Cc1ccccc1CN(C)C(=O)COC(=O)c1ccc2[nH]c(C)c(C)c2c1 |  | inconclusive: 35.5 µM [inhibitor, single point]
O=C(Nc1ccc(N2CCCCC2)cc1)C(Cl)c1ccccc1 (stereo not drawn) |  | inconclusive: 3.55 µM [activator, partial curve, poor fit]
CCCCN(CC)Cc1ccc(CNC(=O)Nc2ccc(OCC)cc2)o1 |  | inconclusive: 23.1 µM [inhibitor, single point]
O=C(Nc1cccc(S(=O)(=O)Nc2ccc(Cl)cc2)c1)c1ccc2c(c1)OCCO2 |  | inconclusive: 11.2 µM [inhibitor, partial curve, poor fit]
CCOc1ccc(S(=O)(=O)N2CCN(c3cccc(C(F)(F)F)c3)CC2)cc1OCC | inactive: 5.46% [at 46.1 µM] | 
Oc1ccc(/C=N/Nc2ncc(Br)cn2)c(O)c1 |  | inconclusive: 16.4 µM [inhibitor, single point]
COc1ccc2[nH]cc(CCN=C3SCC(=O)N3C)c2c1 | inactive: 0.34% | 
Cc1ccc(S(=O)(=O)N2CCN(C(=O)N(c3ccccc3)c3ccccc3)CC2)cc1 |  | active: 18.3 µM
COCCCNC(=O)Cn1nc(-c2ccccc2OC)ccc1=O |  | inconclusive: 35.5 µM [activator, single point]
CCOc1ccc(NC(=O)CN(C)C(=O)COc2cccc(CC)c2)cc1OCC | inactive: 15% | 
Cc1ccccc1NS(=O)(=O)c1ccc(OCCNS(C)(=O)=O)cc1 | inactive: 6.32% | 
Nc1nnc(COc2ccc(Br)cc2Br)s1 |  | inconclusive: 3.66 µM [activator, partial curve, poor fit]
CCOc1ccc(CNC(=O)C2CCN(c3nnc(-n4c(C)ccc4C)s3)CC2)cc1 | inactive: 2.37% [at 46.1 µM] | 
Cc1ccc(NC(=O)c2oc3ccccc3c2NC(=O)Cc2ccccc2)cc1 | inactive: -10.6% [at 46.1 µM] | 
Cc1ccc(Cl)cc1NC(=O)CCC(=O)O |  | inconclusive: 35.5 µM [activator, single point]

Rewritten as a markdown table: 2 of the compounds above

| SMILES | activity change, negative = inhibition | Potency |
| --- | --- | --- |
| O=C(COc1ccc(S(=O)(=O)N2CCCC2)cc1[N+](=O)[O-])N1CCCC1 |  | inconclusive: 3.98 µM [activator, full curve, poor fit] |
| Cc1ccc(-n2c(C)cc(/C=N/NC(=O)Cn3c4ccccc4c(=O)c4ccccc43)c2C)cc1 |  | inconclusive: 10.3 µM [inhibitor, partial curve, poor fit] |
